Like-named read-outs stand apart in the source and are kept apart here. Results are given in words; binding and its absence hold for the method and conditions named. Binding seen in cells or lysates may run through a third protein. Some results given as binding are weak or reduced against the parent protein; the word gives no strength. For some of these results: Sequences can lack the tags named with a protein.
Experiments:
[1] = target: T1, HA-tagged human sodium taurocholate cotransporting polypeptide (HA-hNTCP), expressed in U2OS cells (human) (UniProt Q14973); assay: co-IP; U2OS cells expressing tagged hNTCP (HA or FLAG), RIPA lysate, anti-HA antibody on agarose beads 16 h at 4 °C (beads for FLAG-hNTCP not told), immunoblot; in Figure S1A also after methyl-beta-cyclodextrin (5 mM, 30 min)
T1 sequence: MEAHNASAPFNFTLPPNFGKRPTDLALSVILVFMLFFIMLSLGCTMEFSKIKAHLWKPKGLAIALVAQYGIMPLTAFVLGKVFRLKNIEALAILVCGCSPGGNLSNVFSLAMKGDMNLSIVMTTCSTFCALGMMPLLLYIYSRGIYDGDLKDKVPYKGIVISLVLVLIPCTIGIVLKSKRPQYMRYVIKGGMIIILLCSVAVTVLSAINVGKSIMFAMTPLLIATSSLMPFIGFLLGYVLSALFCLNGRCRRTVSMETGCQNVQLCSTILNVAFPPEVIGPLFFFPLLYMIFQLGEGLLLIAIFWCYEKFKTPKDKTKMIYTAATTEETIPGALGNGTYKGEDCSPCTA

The chains behind the UniProt entries cited, without tags or fusion partners.
UniProt Q03135: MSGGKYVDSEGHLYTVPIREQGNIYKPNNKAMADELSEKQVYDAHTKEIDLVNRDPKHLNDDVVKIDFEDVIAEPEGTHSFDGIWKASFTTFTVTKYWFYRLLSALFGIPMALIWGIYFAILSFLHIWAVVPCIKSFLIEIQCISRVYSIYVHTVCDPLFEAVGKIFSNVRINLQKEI

[2] = target: T2, FLAG-tagged human NTCP (FLAG-hNTCP) (human) (UniProt Q14973); assay: as above
T2 sequence: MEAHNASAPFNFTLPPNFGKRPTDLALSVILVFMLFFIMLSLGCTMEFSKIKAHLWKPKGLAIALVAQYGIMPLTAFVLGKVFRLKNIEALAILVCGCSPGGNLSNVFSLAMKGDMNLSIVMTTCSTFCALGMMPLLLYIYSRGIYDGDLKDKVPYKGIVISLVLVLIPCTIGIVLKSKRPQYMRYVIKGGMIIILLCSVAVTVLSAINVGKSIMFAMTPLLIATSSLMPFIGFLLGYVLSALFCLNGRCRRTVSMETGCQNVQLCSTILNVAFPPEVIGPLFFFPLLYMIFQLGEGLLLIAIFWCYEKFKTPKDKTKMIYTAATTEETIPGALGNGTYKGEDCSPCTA

[3] = target: T3, HA-hNTCP-Y307X, truncated human NTCP lacking the entire C-terminus (human) (UniProt Q14973); assay: as above
T3 sequence: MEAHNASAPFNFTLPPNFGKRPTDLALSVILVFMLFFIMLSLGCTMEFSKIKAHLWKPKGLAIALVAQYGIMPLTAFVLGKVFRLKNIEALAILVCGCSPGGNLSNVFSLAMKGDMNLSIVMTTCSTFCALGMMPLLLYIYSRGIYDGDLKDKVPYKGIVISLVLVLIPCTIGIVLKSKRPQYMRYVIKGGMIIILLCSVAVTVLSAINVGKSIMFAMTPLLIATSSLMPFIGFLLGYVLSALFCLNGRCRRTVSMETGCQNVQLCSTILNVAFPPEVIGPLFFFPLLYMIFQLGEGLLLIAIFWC

[4] = target: T1, HA-tagged human sodium taurocholate cotransporting polypeptide (HA-hNTCP), expressed in U2OS cells (human); assay: as above; remark: listed apart in the source
[5] = target: T4, stomatin, endogenous in human liver (human (endogenous in human liver)) (UniProt P27105); assay: co-IP; human liver homogenate in RIPA buffer, anti-stomatin overnight at 4 °C, Protein A agarose beads, immunoblot; two liver samples
T4 sequence: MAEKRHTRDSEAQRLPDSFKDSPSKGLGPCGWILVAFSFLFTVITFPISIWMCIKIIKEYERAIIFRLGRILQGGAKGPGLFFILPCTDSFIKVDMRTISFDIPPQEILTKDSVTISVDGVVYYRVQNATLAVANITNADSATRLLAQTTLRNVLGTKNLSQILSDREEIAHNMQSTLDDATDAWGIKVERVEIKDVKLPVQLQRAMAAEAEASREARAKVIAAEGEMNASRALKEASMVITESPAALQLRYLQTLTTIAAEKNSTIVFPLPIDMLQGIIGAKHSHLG

Question: With “caveolin-1, in U2OS cells expressing HA-hNTCP (from UniProt Q03135 1-178)” as the molecule, how does the binding [1] read?
Answer: binds

B1: V5-stomatin (protein, UniProt P27105 1-288)
chain: MAEKRHTRDSEAQRLPDSFKDSPSKGLGPCGWILVAFSFLFTVITFPISIWMCIKIIKEYERAIIFRLGRILQGGAKGPGLFFILPCTDSFIKVDMRTISFDIPPQEILTKDSVTISVDGVVYYRVQNATLAVANITNADSATRLLAQTTLRNVLGTKNLSQILSDREEIAHNMQSTLDDATDAWGIKVERVEIKDVKLPVQLQRAMAAEAEASREARAKVIAAEGEMNASRALKEASMVITESPAALQLRYLQTLTTIAAEKNSTIVFPLPIDMLQGIIGAKHSHLG
Question: Which results are given for B1?
Answer: binding [2]: binds; binding [3]: binds; binding [4]: binds

B2: CLCC1 expressed in U2OS cells (V5-CLCC1) (protein, UniProt Q96S66 19-551)
chain: HDDDWIDPTDMLNYDAASGTMRKSQAKYGISGEKDVSPDLSCADEISECYHKLDSLTYKIDECEKKKREDYESQSNPVFRRYLNKILIEAGKLGLPDENKGDMHYDAEIILKRETLLEIQKFLNGEDWKPGALDDALSDILINFKFHDFETWKWRFEDSFGVDPYNVLMVLLCLLCIVVLVATELWTYVRWYTQLRRVLIISFLFSLGWNWMYLYKLAFAQHQAEVAKMEPLNNVCAKKMDWTGSIWEWFRSSWTYKDDPCQKYYELLLVNPIWLVPPTKALAVTFTTFVTEPLKHIGKGTGEFIKALMKEIPALLHLPVLIIMALAILSFCYGAGKSVHVLRHIGGPESEPPQALRPRDRRRQEEIDYRPDGGAGDADFHYRGQMGPTEQGPYAKTYEGRREILRERDVDLRFQTGNKSPEVLRAFDVPDAEAREHPTVVPSHKSPVLDTKPKETGGILGEGTPKESSTESSQSAKPVSGQDTSGNTEGSPAAEKAQLKSEAAGSPDQGSTYSPARGVAGPRGQDPVSSPCG
Question: B2 was tested. Which binding [4] did it give?
Answer: binds

B3: NTCP, endogenous in human liver (protein, UniProt Q14973 1-349)
chain: MEAHNASAPFNFTLPPNFGKRPTDLALSVILVFMLFFIMLSLGCTMEFSKIKAHLWKPKGLAIALVAQYGIMPLTAFVLGKVFRLKNIEALAILVCGCSPGGNLSNVFSLAMKGDMNLSIVMTTCSTFCALGMMPLLLYIYSRGIYDGDLKDKVPYKGIVISLVLVLIPCTIGIVLKSKRPQYMRYVIKGGMIIILLCSVAVTVLSAINVGKSIMFAMTPLLIATSSLMPFIGFLLGYVLSALFCLNGRCRRTVSMETGCQNVQLCSTILNVAFPPEVIGPLFFFPLLYMIFQLGEGLLLIAIFWCYEKFKTPKDKTKMIYTAATTEETIPGALGNGTYKGEDCSPCTA
Question: B3 was tested. Which binding [5] did it give?
Answer: binds

B4: stomatin in the cells of Figure S1A (cells expressing HA-hNTCP, with methyl-beta-cyclodextrin) (protein, UniProt P27105 1-288)
chain: MAEKRHTRDSEAQRLPDSFKDSPSKGLGPCGWILVAFSFLFTVITFPISIWMCIKIIKEYERAIIFRLGRILQGGAKGPGLFFILPCTDSFIKVDMRTISFDIPPQEILTKDSVTISVDGVVYYRVQNATLAVANITNADSATRLLAQTTLRNVLGTKNLSQILSDREEIAHNMQSTLDDATDAWGIKVERVEIKDVKLPVQLQRAMAAEAEASREARAKVIAAEGEMNASRALKEASMVITESPAALQLRYLQTLTTIAAEKNSTIVFPLPIDMLQGIIGAKHSHLG
Question: With B4 as the molecule, how does the binding [4] read?
Answer: binds

Source: publication PMC7226988
